Test results reported in publication doi:10.1101/2020.03.19.999441.

Chains of the proteins cited; added tags and fusions are not shown.
UniProt Q03135: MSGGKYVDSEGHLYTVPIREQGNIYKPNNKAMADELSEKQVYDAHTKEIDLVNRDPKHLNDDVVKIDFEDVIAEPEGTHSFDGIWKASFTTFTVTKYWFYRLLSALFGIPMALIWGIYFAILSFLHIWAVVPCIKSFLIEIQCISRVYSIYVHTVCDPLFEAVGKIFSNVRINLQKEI
UniProt Q99816: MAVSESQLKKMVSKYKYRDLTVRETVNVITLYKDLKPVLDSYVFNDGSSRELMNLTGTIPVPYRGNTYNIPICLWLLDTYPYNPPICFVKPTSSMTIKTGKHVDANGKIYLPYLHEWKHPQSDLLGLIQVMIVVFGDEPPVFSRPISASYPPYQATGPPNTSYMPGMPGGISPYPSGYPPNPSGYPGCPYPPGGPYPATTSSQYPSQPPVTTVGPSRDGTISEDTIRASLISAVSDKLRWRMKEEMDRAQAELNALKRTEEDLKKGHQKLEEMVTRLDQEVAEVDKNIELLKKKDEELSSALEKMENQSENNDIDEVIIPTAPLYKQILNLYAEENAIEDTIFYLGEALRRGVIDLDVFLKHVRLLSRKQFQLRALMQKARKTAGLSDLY

Biological target: YFP-Cav1 (Caveolin-1 with an N-terminal YFP tag) (UniProt Q03135)
Test: affinity purification with mass spectrometry

B2: Flotillin-1 (protein, UniProt O75955 1-427)
chain: MFFTCGPNEAMVVSGFCRSPPVMVAGGRVFVLPCIQQIQRISLNTLTLNVKSEKVYTRHGVPISVTGIAQVKIQGQNKEMLAAACQMFLGKTEAEIAHIALETLEGHQRAIMAHMTVEEIYKDRQKFSEQVFKVASSDLVNMGISVVSYTLKDIHDDQDYLHSLGKARTAQVQKDARIGEAEAKRDAGIREAKAKQEKVSAQYLSEIEMAKAQRDYELKKAAYDIEVNTRRAQADLAYQLQVAKTKQQIEEQRVQVQVVERAQQVAVQEQEIARREKELEARVRKPAEAERYKLERLAEAEKSQLIMQAEAEAASVRMRGEAEAFAIGARARAEAEQMAKKAEAFQLYQEAAQLDMLLEKLPQVAEEISGPLTSANKITLVSSGSGTMGAAKVTGEVLDILTRLPESVERLTGVSISQVNHKPLRTA
binding: no binding

B3: Flotillin-2 (protein, UniProt Q14254 1-428)
chain: MGNCHTVGPNEALVVSGGCCGSDYKQYVFGGWAWAWWCISDTQRISLEIMTLQPRCEDVETAEGVALTVTGVAQVKIMTEKELLAVACEQFLGKNVQDIKNVVLQTLEGHLRSILGTLTVEQIYQDRDQFAKLVREVAAPDVGRMGIEILSFTIKDVYDKVDYLSSLGKTQTAVVQRDADIGVAEAERDAGIREAECKKEMLDVKFMADTKIADSKRAFELQKSAFSEEVNIKTAEAQLAYELQGAREQQKIRQEEIEIEVVQRKKQIAVEAQEILRTDKELIATVRRPAEAEAHRIQQIAEGEKVKQVLLAQAEAEKIRKIGEAEAAVIEAMGKAEAERMKLKAEAYQKYGDAAKMALVLEALPQIAAKIAAPLTKVDEIVVLSGDNSKVTSEVNRLLAELPASVHALTGVDLSKIPLIKKATGVQV
binding: no binding

Now from value to molecule:

binding: no binding
Molecule: TSG101 (from UniProt Q99816 1-390)

binding: binds
B1: Synaptogyrin-2 (protein, UniProt O43760 1-224)
chain: MESGAYGAAKAGGSFDLRRFLTQPQVVARAVCLVFALIVFSCIYGEGYSNAHESKQMYCVFNRNEDACRYGSAIGVLAFLASAFFLVVDAYFPQISNATDRKYLVIGDLLFSALWTFLWFVGFCFLTNQWAVTNPKDVLVGADSVRAAITFSFFSIFSWGVLASLAYQRYKAGVDDFIQNYVDPTPDPNTAYASYPGASVDNYQQPPFTQNAETTEGYQPPPVY

Results are given in words; binding and its absence hold for the method and conditions named. In cells and extracts the contact can be indirect. A yes stands for co-enrichment or nearness to the bait. Other partners may have been found. No binding means not detected with the bait. Each block holds one molecule with its values, some of them ahead of it.
